Experimental data taken from paper PMC10163288.
This is one part of the list.

B1: il10ra_site1_normal_mot_HHH_b1_02492_000000051_0001_1_21_H_._HHH_b1_03692_0001_0000100014_0000001_0 (protein)
chain: SSSSDEAYEAARRAIEEVSRLFEEGNREEARELARELIEELEELGNEAALWAAEHLLRALESSSS
B2: il10ra_site1_sap_17_mot_HHH_b1_03763_000000209_0001_22_38_H_._HHH_b2_07616_0001_0000200007_0000001_0_0001_af2pred_0001 (protein)
chain: SSSSSSDEEEVEELLEEARHVPDPFERAYLLVRAFAVAARSRNPELEELVKEVAIKLSSSSSSSS
B3: il10ra_site1_normal_mot_HHH_b1_05357_000000034_0001_23_39_H_._HHH_b2_02441_0001_0000300049_0000001_1_af2pred_0001 (protein)
chain: SSSSSEERQEELREEVERLLKEGDLKRAAYALLHAFAIANRLNDEELREVIEELARLVAELSSSS
B4: il10ra_site1_sap_13_mot_HHH_b2_03220_af2_000000223_0001_23_40_H_._HHH_b1_00095_0001_0000100004_0000001_0_0001_af2pred_0001 (protein)
chain: SSSSDDRLREIVELIRKAIQLIAEGDPEEARRVLEEAEELAEEANNPIAERVLKTLKEQLDSSSS
B5: il10ra_site1_normal_mot_HHH_b1_08477_000000091_0001_40_57_H_._HHH_b2_02252_0001_0000100010_0000002_0 (protein)
chain: SSSSSDAERSLRRLLEALRYLAELGDEEAFRQLAQFIKALARAANDPEIEERVEEIEERVHSSSS
B6: il10ra_site1_sap_17_mot_HHH_b2_02736_000000092_0001_22_38_H_._HHH_b1_02582_af2_0001_0000600060_0000001_0_0001_af2pred_0001 (protein)
chain: SSSSSDLEELEEIVEELAKRVDEEVRRALERYLEAAERAKELGDEERAELALRVAIALGSSSSSS
B7: il10ra_site1_normal_mot_HHH_b2_01310_000000089_0001_41_55_H_._HHH_b1_08628_af2_0001_0000100003_0000001_0_af2pred_0001 (protein)
chain: SSSDEEERAEELYERAEELIEEGDEEEAIRLLAELSRFVFKLGDPELTRLVLELAELIKKLSSSS
B8: il10ra_site1_normal_mot_HHH_b1_08440_000000140_0001_1_20_H_._HHH_b1_00906_af2_0001_0000400011_0000001_0 (protein)
chain: SSSSDLEEEVEELLEELKHAKDQQEFAELALRVVRVAHESSDPELLEEVWEVIKEVAKRLSSSSS
B9: il10ra_site1_normal_mot_6bb093d23f5042b6c551c363657da53b_0001_1_000000153_0001_51_65_H_._HHH_b2_04858_af2_0001_0000500010_0000001_0 (protein)
chain: SSSSSEVEKEVEELIEEVEEALKQGDNELAIRLLREAVRIAAENDNPELLEELQRLAHLIVSSSS
B10: il10ra_site1_sap_10_mot_HHH_b1_06341_af2_000000167_0001_17_35_H_._HHH_b2_03230_0001_0000100007_0000001_0_0001_af2pred_0001 (protein)
chain: SSSSDEEHEEFEELYEEAEELLKEGDPHKVLELIRRLLELALELNDPELQRRVLELLQRLASSSS
B11: il10ra_site1_normal_mot_HHH_b1_02997_000000220_0001_39_52_H_._HHH_b2_07433_af2_0001_0000200010_0000001_0 (protein)
chain: SSSSSSEENERVYKLIRKALHIDDEEERRELLQEAVELAEEGGNENLLFNARYALKDVEESSSSS
B12: il10ra_site1_sap_22_mot_HHH_b1_06788_af2_000000238_0001_19_36_H_._HHH_b2_06645_0001_0000300026_0000001_0_0001_af2pred_0001 (protein)
chain: SSSSSDTEEEAEELYEQAREAFEKGDEEKARKLFHELVRLAREYNDRLAARLLSQLLELGSSSSS
B13: il10ra_site1_normal_mot_HHH_b2_00134_af2_000000008_0001_38_52_H_._4d38eb9c16805ff794392fe48eb80f74_0001_0001_0000200010_0000001_0 (protein)
chain: SLEELLEELLRELGVPPERIELLKLAFRRQRKQGSPPENVLEALLHLLEATGDPAREAVEELLER
B14: il10ra_site1_sap_25_mot_HHH_b1_05357_000000034_0001_23_39_H_._HHH_b2_00731_0001_0000300016_0000001_0_0001 (protein)
chain: SSSSDEYVRMTLKFAEWLAEEGDRDAVKHFLRVAKELAEDAGDEELEELIKEVEEEVQKLLSSSS
B15: il10ra_site1_normal_mot_HHH_b1_00999_000000080_0001_41_55_H_._HHH_b2_06260_0001_0000100005_0000001_0 (protein)
chain: SSSSSEDEERVEELLEEAEEAAKRDPEEAARLLQEATQIALRNQNQELLQLVWRVVKELGDSSSS
B16: il10ra_site1_sap_31_mot_HHH_b1_05789_000000283_0001_1_15_H_._HHH_b2_07683_0001_0000400018_0000001_0_0001 (protein)
chain: SSSSSDEHQRLYELLREAIEARADGNPEEAQEILEEVIELAEELNNWSVLINARYLLERISSSSS
B17: il10ra_site1_sap_22_mot_HHH_b1_05587_000000266_0001_24_40_H_._HHH_b1_01541_0001_0000300024_0000001_0_0001 (protein)
chain: SSDPEELVEEAKELIEQAHELGIFSEQQSRALKHFLEAALEQGNEEIIRALLEALKLIIESHESS
B18: il10ra_site1_sap_27_mot_HHH_b1_04514_000000156_0001_1_18_H_._HHH_b2_02171_af2_0001_0000500039_0000002_1_0001 (protein)
chain: SSSSDEEELEELLEELERLIEEGDRERAFELIHRILELAYRLNDPEALRRLWELVKRLAKSSSSS
B19: il10ra_site1_sap_25_mot_cff26900b2948c323735a169404cbef0_0001_1_000000271_0001_18_33_H_._d4eec69c0b90ce06bf3cc15fde6963ba_0001_1_0001_0000100001_0000001_0_0001 (protein)
chain: SSSSDEEAREVYELSRRAAELDSEGDEEEAEEVLREAEELAREANNWAVLAAVEHLARITSSSSS
B20: il10ra_site1_normal_mot_HHH_b2_00475_000000107_0001_44_57_H_._HHH_b1_07089_af2_0001_0000300033_0000001_0 (protein)
chain: SSSSDEEEVVELIFRAVRLIAQGNLEEAEELLKEAEKIARENNDEELERYVKIALHFVESHSSSS
B21: il10ra_site1_sap_21_mot_HHH_b1_06789_af2_000000041_0001_1_20_H_._HHH_b1_07559_0001_0000100002_0000002_0_0001 (protein)
chain: SSSSSDEEERRVEELIEELREIEDPHEAARLVIEALRLIFRLSDAELLHELWRAFKEVINSSSSS
B22: il10ra_site1_normal_mot_e1dd4851c59bc1cdde016f988f6856bd_0001_1_000000200_0001_16_31_H_._HEEHE_0473_0001_0000300013_0000001_0 (protein)
chain: DEEREVEQMLEFQARAAGVKSVEVTTENGQVTVTVENVSPRAQELIRAAVLRLEERGLNVSFETR
B23: il10ra_site1_sap_19_mot_HHH_b2_01447_af2_000000258_0001_1_20_H_._HHH_b1_04981_af2_0001_0000300014_0000002_0_0001 (protein)
chain: SSSSNDELNREAYRLSREAMKLSRRDPEEARELLEELLRELEELGNPILALNVEHVLRRLSSSSS
B24: il10ra_site1_normal_mot_HHH_b1_02062_000000185_0001_1_20_H_._HHH_b1_06583_0001_0000300010_0000001_0_af2pred_0001 (protein)
chain: SSSSSEELREAIEISRRIAELLADGDKEEAEELLERLKELAEKLKNPLLEFLLRLLERELNSSSS
B25: il10ra_site1_normal_mot_HHH_b1_07380_000000129_0001_1_20_H_._HHH_b1_03356_0001_0000200015_0000001_0_af2pred_0001 (protein)
chain: SSSSSKAEEVYRLSREAAELLADGNPEEARQVVEEALELAEELGNLVLRVIIEFLLEHIKSSSSS
B26: il10ra_site1_normal_mot_HHH_b1_05056_000000217_0001_1_20_H_._HHH_b2_05694_0001_0000300014_0000001_0 (protein)
chain: SSSSSSDAEEEVERLLEEAEHIEDPKEVIRLLLKATQLALHANDPELLQEVWEVVKRLSSSSSSS
B27: il10ra_site1_normal_mot_HHH_b1_05329_000000008_0001_43_56_H_._ems_3hM_910_0001_0000300015_0000001_0 (protein)
chain: SDEFEEHVKELVEEAKEAVEKNDEETVQKISHILWRLAMEAEDPEEVELASRAFIKVLRLQFKSS
B28: il10ra_site1_normal_mot_HHH_b1_00999_000000080_0001_41_55_H_._HHH_b1_00228_0001_0000300024_0000001_0 (protein)
chain: SSSSDVEEEVEELLEEAKEIPDPRELNEVLLRALRLALEASDQELLQLVWRVVKELGEKLSSSSS
B29: il10ra_site1_normal_mot_HHH_b2_06786_000000018_0001_41_57_H_._HHH_b1_00123_0001_0000100002_0000001_0 (protein)
chain: SSSSSDEEEERVEELIEELRKIEDPRKASRLVIEALRLIFELSDEELLHELWRAAREVIKSSSSS
B30: il10ra_site1_normal_mot_HHH_b1_04940_000000219_0001_1_18_H_._HHH_b2_03338_0001_0000200015_0000002_0 (protein)
chain: SSSSDEDERAVRRLLHAAKQIDDEEYVRLTLRFAKAIAESTNNDELKRLIEEVEEELKEKSSSSS
B31: il10ra_site1_sap_20_mot_HHH_b1_02420_000000033_0001_20_36_H_._HHH_b2_03617_0001_0000100006_0000001_0_0001_af2pred_0001 (protein)
chain: SSSSEEELVRFALRSIRLAEELGDEEKLRAALREIEVLAKYTNNPEAREVLEEARELVEEVLSSS
B32: il10ra_site1_sap_23_mot_HHH_b1_03314_af2_000000278_0001_42_55_H_._HHH_b1_07930_af2_0001_0000100006_0000001_0_0001_af2pred_0001 (protein)
chain: SSSSSDEEAEEEVERLLEEAKHVDDPEERLRLRLEAWRLAVEANDPELEELILEWTIRKRSSSSS
B33: il10ra_site1_normal_mot_HHH_b2_07784_af2_000000103_0001_19_36_H_._HHH_b2_04966_0001_0000300045_0000002_0 (protein)
chain: SSSSDEEYEAVKRLIEEIVEALRNNDEELVEELLEELRRLAEEINTPAAKWSLRALEKALNSSSS
B34: il10ra_site1_normal_mot_HHH_b1_03333_000000091_0001_1_17_H_._HHH_b2_08349_af2_0001_0000500032_0000001_0 (protein)
chain: SSSSNWYEEVKKAIEEASELLEKGNPEEAEEVLEEILEELERLGNVAALWSVEHLLRLIRQSSSS
B35: il10ra_site1_sap_27_mot_9c3e5e2d2b9ffb70dc788f52fbfab6d5_0001_1_000000198_0001_1_14_H_._HHH_b1_06862_af2_0001_0000300024_0000001_0_0001_af2pred_0001 (protein)
chain: SSSSSLEEILEEAEELARENNNATAEAILRYLKEAIERTGDPRAVENAEIVAEIAERAAKSSSSS
B36: il10ra_site1_normal_mot_7f9b3cf633cfd27bca007b62ade1be3b_0001_1_000000138_0001_17_32_H_._HHH_b2_03161_0001_0000400011_0000002_0 (protein)
chain: SSSSDLEEALRFLELSLRRAEELNDPEQIRAAALFLLNLAEEANDERIFEEAHEILEEVNSSSSS
B37: il10ra_site1_sap_19_mot_HHH_b2_01447_af2_000000258_0001_1_20_H_._HHH_b1_08652_af2_0001_0000700021_0000001_0_0001 (protein)
chain: SSSSSQEKTHAEAVLWFAEWTPNPDVAAKAAEFALEKAEELNDEELKERIRELLEELEKGSSSSS

Target: il10ra, Q13651
Assay: yeast display titration

Apparent Kd, inactive:
B1 no binding seen
B2 no binding seen
B3 no binding seen
B4 no binding seen
B5 no binding seen
B6 no binding seen
B7 no binding seen
B8 no binding seen
B9 no binding seen
B10 no binding seen
B11 no binding seen
B12 no binding seen
B13 no binding seen
B14 no binding seen
B15 no binding seen
B16 no binding seen
B17 no binding seen
B18 no binding seen
B19 no binding seen
B20 no binding seen
B21 no binding seen
B22 no binding seen
B23 no binding seen
B24 no binding seen
B25 no binding seen
B26 no binding seen
B27 no binding seen
B28 no binding seen
B29 no binding seen
B30 no binding seen
B31 no binding seen
B32 no binding seen
B33 no binding seen
B34 no binding seen
B35 no binding seen
B36 no binding seen
B37 no binding seen

Ten successive records out of the list so far, for reference:
Apparent Kd, inactive:
B4 no binding seen
B5 no binding seen
B6 no binding seen
B7 no binding seen
B8 no binding seen
B9 no binding seen
B10 no binding seen
B11 no binding seen
B12 no binding seen
B13 no binding seen
